Results of single-concentration screens

Chains of the proteins cited; added tags and fusions are not shown. Residues count along the entry.
UniProt Q4DA54, 1-478: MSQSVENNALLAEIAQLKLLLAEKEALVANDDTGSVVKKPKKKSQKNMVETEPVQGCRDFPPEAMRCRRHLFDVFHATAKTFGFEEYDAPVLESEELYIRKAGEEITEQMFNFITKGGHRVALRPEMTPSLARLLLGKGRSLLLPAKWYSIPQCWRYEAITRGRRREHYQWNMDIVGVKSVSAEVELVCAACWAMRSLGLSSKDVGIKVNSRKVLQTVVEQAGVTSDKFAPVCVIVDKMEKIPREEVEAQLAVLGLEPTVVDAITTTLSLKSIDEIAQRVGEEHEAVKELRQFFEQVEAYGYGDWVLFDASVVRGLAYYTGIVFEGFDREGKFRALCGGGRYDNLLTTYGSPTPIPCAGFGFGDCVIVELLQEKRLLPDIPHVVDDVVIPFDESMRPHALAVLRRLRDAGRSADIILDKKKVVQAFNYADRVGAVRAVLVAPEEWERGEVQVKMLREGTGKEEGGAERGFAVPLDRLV
UniProt A4I591, 1-473: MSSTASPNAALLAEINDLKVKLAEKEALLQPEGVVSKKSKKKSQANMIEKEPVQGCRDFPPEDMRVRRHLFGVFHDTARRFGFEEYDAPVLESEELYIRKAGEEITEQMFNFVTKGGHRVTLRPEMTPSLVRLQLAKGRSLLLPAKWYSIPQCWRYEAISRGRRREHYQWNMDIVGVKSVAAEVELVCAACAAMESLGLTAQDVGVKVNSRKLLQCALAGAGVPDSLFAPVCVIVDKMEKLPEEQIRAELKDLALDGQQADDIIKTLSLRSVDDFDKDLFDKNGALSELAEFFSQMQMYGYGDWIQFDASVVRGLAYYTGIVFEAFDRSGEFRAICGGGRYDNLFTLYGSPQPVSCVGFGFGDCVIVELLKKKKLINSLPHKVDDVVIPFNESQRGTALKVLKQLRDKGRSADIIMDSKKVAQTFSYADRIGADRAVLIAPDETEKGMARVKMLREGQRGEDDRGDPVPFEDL
UniProt P9WPC5, whole entry: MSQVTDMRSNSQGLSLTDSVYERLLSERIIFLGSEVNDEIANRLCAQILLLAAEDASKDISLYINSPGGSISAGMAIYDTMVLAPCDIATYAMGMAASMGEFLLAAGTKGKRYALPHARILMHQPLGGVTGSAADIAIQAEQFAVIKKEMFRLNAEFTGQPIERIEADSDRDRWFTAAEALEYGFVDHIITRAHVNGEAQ
UniProt P9WPC3, whole entry partner: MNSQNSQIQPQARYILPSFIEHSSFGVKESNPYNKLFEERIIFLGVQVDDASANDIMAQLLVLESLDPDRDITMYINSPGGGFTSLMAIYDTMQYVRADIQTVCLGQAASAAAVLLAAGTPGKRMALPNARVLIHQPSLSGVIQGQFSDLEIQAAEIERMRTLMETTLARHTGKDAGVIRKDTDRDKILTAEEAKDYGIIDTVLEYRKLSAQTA

Measurements from “University of Dundee, Small-Polar-MMV Screening Library” (2021), ChEMBL document CHEMBL3988442.

Values are the deposited “Percent Effect”, in %.
How 0% and 100% were set is not recorded. Most values in the screen are low, and negative values occur.
Compounds were drawn at random from those tested, without regard to their results.
Two or more numbers in one place are separate tests of the same structure; such repeats can differ widely.
A dash means the value is not listed here; it may have been measured.

Toxoplasma: 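Assay of Toxoplasma gondii numbers, read through their beta-galactosidase reporter with a colour substrate. Concentration: 10 µM. Higher reads as fewer parasites (inferred from which compounds were picked for retests). Of about 67,000 compounds tested this way, about 260 (0.38%) reached 50% or more in at least one test.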
Leishmania in macrophages: 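Cell assay of Leishmania donovani living inside macrophages; the read-out is not stated. Tested at 30 µM. The record gives no direction; compounds that gave an IC50 in retests scored well above the rest, so higher reads as stronger inhibition. About 69,000 compounds were tested under these conditions; 1.5% (about 1,000) showed 50% or more at least once.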
TcHisRS: 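Histidine-tRNA ligase, Trypanosoma cruzi CL Brener (UniProt Q4DA54). Enzyme assay of histidyl-tRNA synthetase; the read-out is not stated. Tested at 30 µM. Direction is inferred from retests: higher values go with stronger inhibition. About 69,000 compounds were tested under these conditions; 0.045% (about 31) showed 50% or more at least once.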
LiHisRS: 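Histidine-tRNA ligase, Leishmania infantum (UniProt A4I591). Enzyme assay of histidyl-tRNA synthetase; the read-out is not stated. Concentration: 30 µM. The record gives no direction; compounds that gave an IC50 in retests scored well above the rest, so higher reads as stronger inhibition. The assay is labelled LdHisRS but filed under L. infantum. Size under these conditions: about 69,000 compounds, about 410 of them at 50% or above in at least one test.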
ClpP1P2: 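Protease assay of ClpP1P2, read by the AMC dye that it sets free. Target: ClpP1P2, Mycobacterium tuberculosis (UniProt P9WPC5 and UniProt P9WPC3). Concentration: 50 µM. Direction is inferred from only a few compounds that gave an IC50; most scored high, so higher reads as stronger inhibition. Most other retested compounds had strongly negative values. Size under these conditions: about 69,000 compounds, about 10 of them at 50% or above in at least one test.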
T. brucei: 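Whole-parasite assay of Trypanosoma brucei over 72 hours; the read-out is not stated. Tested at 30 µM. The record gives no direction; compounds that gave an IC50 in retests scored well above the rest, so higher reads as stronger inhibition. Values scatter widely below zero; nearly all retest evidence comes from the higher of the two concentrations used. Of about 64,000 compounds tested this way, about 940 (1.5%) reached 50% or more in at least one test.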

SMILES	Toxoplasma	Leishmania in macrophages	TcHisRS	LiHisRS	ClpP1P2	T. brucei
CCN(Cc1ccoc1)C(=O)Nc1ccccc1CN1CCOCC1	-39.81%	19.42%	12.73%	20%	2.115%	-53.24%
Cc1ncsc1C(=O)N1CCCN(Cc2cscn2)CC1	3.957%	18.55%	0.3774%	10.67%	5.435%	-38.37%
OC(COCc1cccs1)CSc1nnc2ccccn12 (configuration not stated)	-	-1.422%	3.448%	-3.226%	-6.547%	-12.98%
CCCn1cc(C(=O)NC(CC(=O)O)c2ccccc2F)c(C)n1 (configuration not stated)	6.067%	-29.97%	3.448%	-2.564%	2.239%	-
CCOc1cccc(C(=O)NCCC(=O)Nc2ccncc2)c1	-3.067%	7.632%	-3.261%	14.29%	-13.37%	-7.22%
CCN(CC)C(=O)CN1CCCC1c1nc(C)c2c(n1)N(C)C(=O)CC2 (configuration not stated)	4.504%	8.329%	21.84%	30.22%	-54.44%	-1.329%
CCn1cnnc1CNC(=O)c1ccc(Br)cc1F	-1.614%	1.995%	3.571%	9.302%	10.1%	-8.071%
CS(=O)(=O)CCC(=O)N1CCC2(CCCN(C3CCOCC3)C2=O)C1 (configuration not stated)	9.396%	25.61%	-2.479%	9.524%	-10.2%	22.08%
COc1ncnc2c1CCN(CC1CCOC1)CC2 (configuration not stated)	-0.7083%	-58.97%	-2.041%	9%	-6.138%	-20.82%
COc1c(CNCc2ccnc(N3CCCC3)c2)c(C)nn1C	-2.081%	36.34%	0.3759%	10.81%	1.417%	13.79%
CC1=NOC(C(=O)N2CCC(O)(c3ccc4nc(C)ccc4c3)CC2)C1 (configuration not stated)	7.588%	21.37%	1.058%	6.061%	10.95%	-8.523%
CC(=O)Nc1nc(C(=O)NCCOc2cccc(C)c2)cs1	6.481%	16.43%	-2.062%	9.677%	4.566%	-38.26%
COCCN1CC2(CCN(C(=O)c3ccno3)CC2)c2ccccc21	-	-	4.854%	32.69%	22.39%	-
CN(Cc1ccccn1)C1CC2(CCN(Cc3ccccn3)CC2)C1	-	-	4.902%	10%	-7.536%	-
Cc1cc2n(n1)CC(CNC1CCN(c3ccc(F)cc3)CC1)CN2 (configuration not stated)	2.711%	4.553%	0.8475%	18.87%	-7.932%	-4.251%
Cc1cc(C(=O)N2C[C@@H]3OCCN(CCN4CCCC4)[C@@H]3C2)c(C)o1	-	-	20.59%	24%	-0.7832%	-
CCCOc1cc(CNC(=O)Nc2ccccn2)ccn1	2.41%	-12.62%	2.762%	2.073%	-7.957%	-58.96%
CN(c1cccnc1N1CCCC1)S(=O)(=O)c1cccnc1	-2.147%	0.7062%	7.937%	10.96%	-1.91%	-24.47%
CC(=O)N[C@H]1C[C@@H](c2nc(-c3ccc4c(c3)OCO4)no2)N(C)C1	0.6693%	-11.08%	2.488%	10.81%	0.1558%	-23.52%
CN(C)C(=O)N1CCc2c(CNc3ncccn3)cncc2C1	2.671%	14.27%	3.784%	7.547%	0.6297%	-10.39%
CCOC(=O)CNc1nc(COC)nc2c1cnn2C	-36.07%	4.165%	2.469%	8.602%	-10.04%	-34.4%
Cc1ccc(NC(=O)CS(=O)(=O)NC2CCC(C)CC2)nc1 (configuration not stated)	6.626%	10.98%	2.762%	23.94%	5.264%	-17.6%
COc1cccc2c1OCC(NC(=O)NCCC(N)=O)C2 (configuration not stated)	-0.03906%	-3.86%	3%	5.479%	-13.3%	-16.13%
[H][C@@]12CCN(Cc3ccccc3)C[C@]1([H])CCN(C1CCCCC1)C(=O)C2	-0.3346%	6.318%	-	-	-	-33.11%
CCc1sc(-c2nnc(CNC(C)Cn3cc(C)cn3)o2)cc1C (configuration not stated)	8.673%	-19.32%	6.061%	-3.175%	-8.589%	-40.4%
Cc1cc(NS(=O)(=O)c2ccccc2F)ccc1-n1cccc1C(=O)O	4.173%	8.143%	0%	0%	-15.75%	-1.154%
CN(C)S(=O)(=O)N1C[C@H]2C[C@H](C(=O)Nc3ccccc3)[C@@H](C1)O2	-	-	4.878%	23.08%	1.147%	-
O=S(=O)(c1ccc(Cl)s1)N1CCN(Cc2nc(-c3ccco3)cs2)CC1	-19.66%	28.01% & 14.6%	7.229%	28.21%	-25.29%	-5.758%
CS(=O)(=O)NCc1ncn2c1CN(CCN1CCCC1)CCC2	-9.824%	23.06%	5.882%	6.422%	6.768%	-35.43%
CC(C)C(NC(=O)Nc1ccccn1)c1cccs1 (configuration not stated)	22.09%	-6.325%	3.448%	-3.478%	11.25%	-20.6%
O=C(c1ccccn1)N1C[C@@H]2CC[C@H](C1)N(C(=O)CCc1cccs1)C2	-	-	5.021%	16.04%	-3.469%	-
CN1CCOCC2(CCCN(C(=O)Cc3ccncc3)C2)C1 (configuration not stated)	-	-	7.563%	10.09%	6.243%	-
CCNc1cc2c(nn1)CCN(C(=O)c1ccc(-n3cccn3)nc1)C2	-6.995%	27.19%	6.468%	20.48%	-4.4%	-24.82%
CN(CCC#N)C(=O)CCOc1cccc(F)c1	1.559%	-6.13%	5.435%	14.29%	10.52%	-44.33%
Cc1ccccc1CN(C)C(=O)CN1CCOC(Cn2cccn2)C1 (configuration not stated)	0.5676%	14.79%	3.704%	13.68%	-2.905%	-
CCc1cc(NCC(O)CN2CCCC2)ncn1 (configuration not stated)	4.768%	15.47%	-5.579%	8.197%	18.12%	-77.95%
Cc1nc(CNC(=O)N(C)Cc2cnn(C)c2)cs1	29.6%	-11.16%	2.041%	1.835%	-3.158%	-
Cc1nc2cc(C(=O)N3CCCC(n4cncn4)C3)ccc2n1C (configuration not stated)	2.477%	12.85%	-1.916%	15.38%	0.2953%	-19.5%

Once more, the final 2:

* Cc1nc(CNC(=O)N(C)Cc2cnn(C)c2)cs1 : Toxoplasma: 29.6%; Leishmania in macrophages: -11.16%; TcHisRS: 2.041%; LiHisRS: 1.835%; ClpP1P2: -3.158%
* Cc1nc2cc(C(=O)N3CCCC(n4cncn4)C3)ccc2n1C (configuration not stated) : Toxoplasma: 2.477%; Leishmania in macrophages: 12.85%; TcHisRS: -1.916%; LiHisRS: 15.38%; ClpP1P2: 0.2953%; T. brucei: -19.5%